These results are taken from article PMC8842666.

No constants are given. Whether binding was seen depends on the method and setting. In cells and extracts the contact can be indirect. Binding calls can cover weak binding; strength is not graded here. Sequences can lack the tags named with a protein.

In this experiment the target is T1, HA-ASB17 (not stated (human or mouse cDNA cloned)) (UniProt Q8WXJ9).
T1 sequence: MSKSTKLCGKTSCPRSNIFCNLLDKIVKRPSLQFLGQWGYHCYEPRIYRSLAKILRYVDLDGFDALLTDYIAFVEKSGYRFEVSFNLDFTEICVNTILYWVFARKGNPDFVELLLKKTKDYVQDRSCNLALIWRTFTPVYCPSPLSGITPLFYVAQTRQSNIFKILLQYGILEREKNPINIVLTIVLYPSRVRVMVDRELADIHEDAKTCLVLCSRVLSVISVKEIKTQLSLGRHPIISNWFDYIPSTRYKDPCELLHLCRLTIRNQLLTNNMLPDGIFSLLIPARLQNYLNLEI
The experiment is described as follows: co-IP; HEK293T co-transfected for 24–36 h; RIPA lysis buffer (50 mM Tris–HCl pH 7.4, 150 mM NaCl, 1% NP-40, 1 mM EDTA, 5% glycerol); anti-Flag or anti-HA antibody at 4°C overnight, protein G agarose; washes with 300 mM NaCl; immunoblot. A general note: In western blotting, separated proteins are transferred to a membrane and probed.

Take “ZnF domain of TRAF6 (domain or fragment)”: the binding entry was “binds”.
